Experiment [1] addresses T1, His-TilA without its signal sequence (four-protein complex) (S. aureus) (UniProt Q2G0W9).
T1 sequence: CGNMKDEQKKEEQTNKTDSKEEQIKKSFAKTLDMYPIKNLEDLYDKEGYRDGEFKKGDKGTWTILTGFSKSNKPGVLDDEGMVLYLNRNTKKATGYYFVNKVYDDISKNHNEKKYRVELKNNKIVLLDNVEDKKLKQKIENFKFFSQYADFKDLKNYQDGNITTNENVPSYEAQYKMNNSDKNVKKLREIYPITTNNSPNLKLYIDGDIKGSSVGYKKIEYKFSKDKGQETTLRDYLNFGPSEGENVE
The experiment can be described thus: pull-down + SEC.

In experiment [2] the target is TlaA1-Strep (four-protein complex) (S. aureus) (UniProt Q2G0W7). Put plainly: pull-down + SEC.
The target of experiment [3] is TslA (SAOUHSC_00406) in the four-protein complex (S. aureus) (UniProt Q2G0W8). Put plainly: pull-down + SEC.
Experiment [4] shares this target. Put plainly: cryo-EM structure.
Experiment [5] deals with T1, His-TilA without its signal sequence (four-protein complex) (S. aureus). Put plainly: cryo-EM structure.

No constants are given. Whether binding was seen depends on the method and setting. A result given as binding can be weak or reduced; the word gives no strength. For some assays here: Tags and fused reporters may be left off the sequences shown. For some assays here: Binding seen in cells or lysates may run through a third protein.

With “TlaA1-Strep (four-protein complex) (from UniProt Q2G0W7)”, the binding entry in experiment [1] is “binds”.
As to “TlaA2-Myc (four-protein complex) (from UniProt Q2G0W6)”, the binding result in experiment [2], in experiment [1], in experiment [3] and in experiment [4] was “binds” throughout.
Consider “TslA (SAOUHSC_00406) in the four-protein complex (from UniProt Q2G0W8)”, for which the binding result in experiment [2], in experiment [1] and in experiment [5] was “binds” in each case.

Source of the values: paper doi:10.1101/2023.07.29.551094.
